According to PubChem BioAssay AID540317 (National Center for Advancing Translational Sciences (NCATS), 2011):
About 2,200 (0.56%) of roughly 390,000 compounds were called active. The source calls these results inconclusive, neither active nor inactive. The call rests on the fitted dose curve; in most records, active means well fitted inhibition curve with a large enough effect; inconclusive means small, poorly fitted or top-dose-only effect; inactive means no such curve, though single readings can be large or run the other way.

Chains of the proteins cited; added tags and fusions are not shown.
UniProt P83916, whole entry: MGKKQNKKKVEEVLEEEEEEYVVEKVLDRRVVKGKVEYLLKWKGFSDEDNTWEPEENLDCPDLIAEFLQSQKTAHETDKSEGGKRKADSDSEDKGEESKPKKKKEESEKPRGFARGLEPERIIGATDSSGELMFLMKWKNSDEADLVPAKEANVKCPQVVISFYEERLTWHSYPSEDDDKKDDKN

biological target: Chromobox protein homolog 1 (Homo sapiens) (UniProt P83916); assay: HTS for Inhibitors of HP1-beta Chromodomain Interactions with Methylated Histone Tails; conditions: AlphaScreen HP1-beta / biotin-H3K9me3 peptide binding; further: nearly all actives have a fitted effect of over 70% in size
Potency means the concentration at half of the fitted maximal effect.

| Compound | Potency |
| --- | --- |
| CN(C)c1ccc(C(=O)NCC2(N3CCCCC3)CCCCC2)cc1 | inconclusive: 89.1 µM |
| CCN1CCC(Nc2cccc(F)c2)CC1 | inconclusive: 25.1 µM |
| CN1CCC(Nc2cccc(F)c2)CC1 | inconclusive: 7.08 µM |
| CC(C)c1ccc(NC2CCN(C(=O)OC(C)(C)C)CC2)cc1 | inconclusive: 44.7 µM |
